According to US8546392B2, “17Beta-hydroxysteroid dehydrogenase type 1 inhibitors for the treatment of hormone-related diseases” (Universitaet des Saarlandes, priority 2008, dated 2013):
Like-named read-outs stand apart in the source and are kept apart here.

Assays:
[1] = rat, pH 7.4
[2] = Test for metabolic stability, liver microsomes; conditions: rat liver microsomes

Row | SMILES | Slope (−k) [1] | Slope (−k) [2]
1 | CN1C(=O)CN=C(c2ccccc2)c2cc(Cl)ccc21 [diazepam] | −0.017 | 
2 | CN(C)CCOC(c1ccccc1)c1ccccc1 [diphenhydramine, reference compound] |  | −0.102
